Reference: PubChem BioAssay AID2685 (National Center for Advancing Translational Sciences (NCATS), 2010)
Some of the results follow. Shown are side measurements of this screen, not its main read-out; they come without a call. Most of these compounds were active or inconclusive in the main read-out, so they are no random draw. Potencies come from curve fits of mixed quality, noted in brackets.

Experiment: qHTS Assay for Lipid Storage Modulators in Drosophila S3 Cells;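 on cell number change: cells counted by Cell Tracker Red CMTPX staining in the red channel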
Conditions: BODIPY lipid droplet fluorescence, 18-24 h; for cell number change: measured here: cell count max response, cells fed with added oleic acid
Summary of the method: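 Drosophila S3 cells got compounds at several concentrations plus oleic acid (400 uM solution). Laser-scanning cytometry with 488 nm excitation read lipid droplets at 500-530 nm and cells at 575-640 nm. Percent activity was relative to 20 uM Triacsin C.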

[1] = measured here: lipid fluorescence (Fed channel) AC50, cells fed with added oleic acid
[2] = measured here: cell number channel AC50, cells fed with added oleic acid

O=C(CSc1ncnc2scc(-c3ccc(Cl)cc3)c12)NCc1ccc2c(c1)OCO2
cell number change: 1.98% | AC50 [1]: 2.59 µM [rising, partial curve]

Cc1ccccc1NC(=O)c1ccc2nccnc2c1
cell number change: -13.3% | AC50 [1]: 6.51 µM [falling, single point]

CS(=O)(=O)Nc1ccc(C(=O)NCc2ccc3c(c2)OCO3)cc1
cell number change: 1.64% | AC50 [1]: 2.91 µM [rising, single point]

CCC(C(=O)Nc1cccc(C(=O)O)c1C)c1ccccc1 (stereo unspecified)
cell number change: 28.1%

Cc1nnc(NC(=O)c2ccc(S(=O)(=O)N3CCCCC3C)cc2)o1 (stereo unspecified)
cell number change: 14% | AC50 [1]: 0.731 µM [falling, single point]

COc1cccc(OCc2nc3c4cnn(-c5ccccc5)c4ncn3n2)c1
cell number change: -89.4% | AC50 [2]: 20.6 µM [falling, single point] | AC50 [1]: 29.1 µM [falling, single point]

Cc1ccccc1CC1(CO)CCCN(C(=O)c2cccc(Cl)c2)C1 (stereo unspecified)
cell number change: 28.3% | AC50 [1]: 6.51 µM [rising, full curve, poor fit]

Cc1nnc(SC(C)C(=O)NC2CCCCC2)s1 (stereo unspecified)
cell number change: 0.961% | AC50 [1]: 0.461 µM [falling, full curve, poor fit]

COc1cc2sc(C)nc2c2ccccc12
cell number change: 9.22% | AC50 [1]: 29.1 µM [falling, single point]

CN(C/C=C/c1ccccc1[N+](=O)[O-])Cc1ccccc1
cell number change: 2.92% | AC50 [2]: 2.91 µM [rising, single point] | AC50 [1]: 6.51 µM [rising, partial curve, poor fit]

Cc1ccccc1CNCc1ccc2c(c1)OCO2
cell number change: 27.8% | AC50 [2]: 2.31 µM [rising, partial curve, poor fit]

O=C(O)/C=C/C(=O)Nc1ccccc1C(=O)OCC(=O)c1ccc2c(c1)OCCO2
cell number change: 23% | AC50 [1]: 25.9 µM [rising, single point]

CC1(C)N([O-])C(c2cccs2)=C[N+]1=O
cell number change: -27.6% | AC50 [2]: 0.082 µM [falling, full curve, poor fit] | AC50 [1]: 3.26 µM [falling, full curve]

CCOc1ccc(-c2c(C(=O)N/N=C/c3ccc(Cl)cc3)nnn2-c2nonc2N)cc1
cell number change: 74.6% | AC50 [1]: 20.6 µM [falling, partial curve]

O=C(CN1CCN(S(=O)(=O)c2ccc(F)cc2)CC1)NCC1(N2CCOCC2)CCCCC1
cell number change: 8.55% | AC50 [1]: 29.1 µM [falling, single point]

CC1=C(C(=O)OCc2ccccc2)C(c2ccc(-c3ccccc3)cc2)NC(=O)N1CCCCCC(=O)O (stereo unspecified)
cell number change: -7.68% | AC50 [1]: 11.6 µM [rising, partial curve]

CN(C)CCCOC(=O)C1c2ccccc2Oc2ccccc21
cell number change: -29.8% | AC50 [1]: 7.31 µM [falling, partial curve]

CC1CCN(C(=O)c2ccc(S(=O)(=O)NCc3ccco3)cc2)CC1
cell number change: 0.87%

O=C(OCC(=O)N1CCOCC1)c1ccccc1SCC(=O)N1CCCC1
cell number change: 9.63%

N/C(=N\N=C/c1ccc(F)cc1)N/N=C\c1ccc(F)cc1
cell number change: -17.4%

Cc1ccc(-c2c(C)n([O-])c3c([n+]2=O)CCCCC3)cc1
cell number change: 8.68% | AC50 [1]: 1.64 µM [falling, full curve, poor fit]

CCCCN1Cc2c(nc3cc(-c4ccccc4)[nH]n3c2=O)C1=O
cell number change: -46.2% | AC50 [1]: 29.1 µM [falling, single point]

CC(=O)NC(CCS(C)(=O)=O)C(=O)Nc1ccc(C)c(F)c1 (stereo unspecified)
cell number change: -5.35%

Cc1ccc(O)c(N=Nc2ccc(S(=O)(=O)N3CCOCC3)cc2)c1
cell number change: -22.3% | AC50 [1]: 10.3 µM [falling, partial curve, poor fit]

N#CCSCC(=O)Nc1ccc(Cl)cc1
cell number change: -60.7% | AC50 [2]: 29.1 µM [falling, single point] | AC50 [1]: 3.66 µM [falling, single point]

CCOC(=O)C(Cc1ccc(NC(C)=O)cc1)N1C(=O)c2ccccc2C1=O (stereo unspecified)
cell number change: -12.9% | AC50 [2]: 0.731 µM [falling, partial curve, poor fit] | AC50 [1]: 0.651 µM [falling, full curve, poor fit]

CCOC(=O)c1cnc2cc(-c3ccc(C(C)(C)C)cc3)nn2c1N
cell number change: -26.2% | AC50 [2]: 6.51 µM [falling, single point] | AC50 [1]: 0.184 µM [falling, full curve, poor fit]

CCOC(=O)c1c(C(C#N)C#N)cc(C)nc1C
cell number change: -1.65%

COc1ccc(C(=O)NCC(=O)N2CCN(c3ncccn3)CC2)cc1OC
cell number change: 14.7% | AC50 [1]: 6.51 µM [falling, single point]

CCn1c(N2CCN(S(=O)(=O)c3ccc(OC)cc3)CC2)nc2ccccc21
cell number change: 17.9% | AC50 [1]: 23.1 µM [falling, single point]

CN(C(=O)c1ccc(NC(=O)Cc2ccc(NC(=O)C3CCCN(C(=O)C4CCCCC4)C3)cc2)cc1)C1CC1 (stereo unspecified)
cell number change: 6.02% | AC50 [2]: 3.66 µM [falling, single point] | AC50 [1]: 6.51 µM [falling, single point]

CC1(C)NC(=O)N(CCOCCOc2ccc3ccccc3c2Br)C1=O
cell number change: -0.832%

COc1ccccc1N1CCN(C(=O)c2ccc(-c3nc4ccccc4s3)o2)CC1
cell number change: -7.52% | AC50 [1]: 0.0651 µM [falling, full curve, poor fit]

O=c1c(S(=O)(=O)c2ccc(Cl)cc2)cn(Cc2ccccc2)c2ccc(F)cc12
cell number change: 37.3% | AC50 [2]: 18.4 µM [rising, partial curve, poor fit] | AC50 [1]: 29.1 µM [falling, single point]

COC(=O)c1c(NC(=O)CN2C(=O)C(=O)N(CC(C)C)C2=O)sc(C)c1C
cell number change: 19.5% | AC50 [2]: 6.51 µM [rising, single point]

COC(=O)c1ccccc1NC(=O)c1ccc(COc2cc(C)cc(C)c2)o1
AC50 [1]: 6.51 µM [rising, single point]

CC(=O)c1ccc(N2CCN(CC(=O)Nc3ccc(N4CCOCC4)cc3)CC2)cc1
cell number change: 33.8% | AC50 [2]: 2.91 µM [rising, partial curve] | AC50 [1]: 0.517 µM [rising, full curve]

Cc1ccc(S(=O)(=O)N2CCOCC2)cc1C(=O)NCc1cccs1
cell number change: -0.919% | AC50 [1]: 2.91 µM [falling, single point]

COc1ccc(OCC(=O)N(Cc2ccco2)C2CCS(=O)(=O)C2)cc1 (stereo unspecified)
cell number change: -2.46% | AC50 [1]: 6.51 µM [falling, partial curve, poor fit]

CSc1ccccc1NS(=O)(=O)c1ccc2c(c1)OCCO2
cell number change: 43.8% | AC50 [2]: 6.51 µM [falling, single point] | AC50 [1]: 6.51 µM [falling, single point]

COc1cc(/C=C2\C(=O)NN(c3ccc(C)cc3)C2=O)cc([N+](=O)[O-])c1O
cell number change: -5.78%

Cc1ccsc1/C=N/NC(=O)c1cccnc1
AC50 [1]: 7.31 µM [rising, full curve, poor fit]

COc1ccc(N2CCN(C(=O)CNC(=O)c3ccco3)CC2)cc1
cell number change: 17.2% | AC50 [1]: 29.1 µM [rising, single point]

Cc1cccc(C)c1Nc1nnc(SCC(=O)c2ccc(Br)s2)s1
cell number change: 13.4% | AC50 [2]: 0.146 µM [rising, full curve, poor fit]

CN(CC(=O)O)c1ccc(C(F)(F)F)cc1[N+](=O)[O-]
cell number change: -40.9% | AC50 [2]: 6.51 µM [falling, single point]

Nc1nnc(SCC(=O)Nc2cccc(S(=O)(=O)N3CCCCC3)c2)s1
cell number change: -8.9% | AC50 [1]: 18.4 µM [rising, single point]

Cc1ccc(OCCN2CCN(c3ncnc4sc(C)c(C)c34)CC2)cc1
cell number change: -33.3% | AC50 [2]: 32.6 µM [falling, single point]

COC(=O)c1sc(NC(=O)COc2ccc(C)cc2)nc1C
cell number change: 148% | AC50 [2]: 8.2 µM [rising, partial curve] | AC50 [1]: 2.06 µM [rising, partial curve]

CC1CCN(C(=O)c2[nH]cnc2C(=O)Nc2ccon2)CC1
cell number change: 2.59%

O=C(NC1CC1)c1ccc2c(c1)S(=O)(=O)c1cc(Cl)ccc1C2=O
cell number change: 8.78% | AC50 [1]: 6.51 µM [falling, single point]

CCSc1nc(C2CC2)cc(-c2cccs2)c1C#N
cell number change: 66.6% | AC50 [2]: 13 µM [rising, partial curve] | AC50 [1]: 6.51 µM [rising, single point]

CC(NS(=O)(=O)c1cccc(Cl)c1)C(=O)N(C)C1CCN(C)CC1 (stereo unspecified)
cell number change: -9.47% | AC50 [2]: 0.116 µM [falling, single point]

CCC(C)(C)NC(=O)CN(C(=O)CCC(=O)Nc1ccccn1)c1ccc2c(c1)OCO2
cell number change: 4.78%

NS(=O)(=O)OCCCCCc1ccccc1
cell number change: 22.3% | AC50 [1]: 29.1 µM [rising, single point]

COC(=O)c1c(NC(=O)c2c(C)noc2C)sc2c1CCCCCC2
cell number change: -9.6%

CCN(CC)c1cc(C)c(C#N)c2nc3ccccc3n12
cell number change: 3.04%

O=C(NCc1ccc(C(=O)O)cc1)OCc1ccccc1
cell number change: 14.8% | AC50 [1]: 0.00461 µM [rising, full curve, poor fit]

COc1ccc(N2C(=O)c3ccccc3NC2c2ccc(OC)c(Cn3cc([N+](=O)[O-])cn3)c2)cc1 (stereo unspecified)
cell number change: 7.19% | AC50 [1]: 10.3 µM [rising, partial curve]

Cc1cc(C)c(NC(=O)CNC(=O)COC(=O)Cc2ccccc2C)c(C)c1
cell number change: 30.7% | AC50 [2]: 29.1 µM [rising, single point] | AC50 [1]: 29.1 µM [rising, single point]

Cn1c(Sc2ccccc2Cl)c(C=O)c2ccccc21
cell number change: -28.6% | AC50 [1]: 29.1 µM [falling, single point]

CSc1cccc(NC(=O)CN(C2CCCCC2)S(C)(=O)=O)c1
cell number change: 5.81% | AC50 [1]: 16.4 µM [rising, single point]
